Test results taken from patent US20230235374A1, “High Throughput Assays for Detecting Translation Readthrough Inducers” (The Trustees of the University of Pennsylvania, priority 2021, published 2023).
Where “and” joins values, the source holds several entries; their conditions need not be identical. Identical values can stand only once.

What was measured:
[1] = tested on: rRNA fragments I-IV of Stop-POST5; experiment: RNaseH fragment assay, Stop-POST5; type: binding, shrimp (Artemia salina); settings: fit to eq (1)
Description: RNaseH Fragment Assay. Total RNA was prepared from the ^3H-AzAt photoaffinity labeled ribosome by phenol-chloroform extraction. RNA: DNA duplexes were formed by incubating total RNA (0.2 μM) with an oligonucleotide pair (1 μM of each, sequences shown Table 1), flanking a specific RNA region, in 22.8 μL of water at 95° C. for 2 min, followed by annealing at 50° C. for 30 s and quenching on ice. Six units (1.2 μL) of RNase H (NEB) and 6 μl of 5×RNase H Reaction Buffer were next added to the RNA: DNA duplex and incubated at 37° C. for 1 hour, followed by phenol-chloroform extraction of RNA. The digested RNA was separated on 12% TBE-Urea PAGE gel, and the target band along with the adjacent upper and bottom gels were sliced by a 2 mm gel cutter. […] The slurry was removed by centrifugation and the eluted ^3H labeled rRNA in the supernatant was quantified. The stoichiometry of AzAt photoincorporation was calculated based on a gel recovery yield of 20±2%, determined using an authentic sample of [^3H]-Gln-tRNA^Gln.
Testing the functional pertinence of AzAt photolabeling of 18S A1195, 28S-A3093, 28S-A2672, and 28S-2669. […] These experiments, the results of which are summarized in Table 5, were performed at two different AzAt concentrations. eRF1 and eRF1.eRF3.GDPNP effects were measured using 300 μM AzAt, paralleling the LASER-Seq PAL experiments.

[2] = tested on: Stop-POST5 complex (RFC-dependent termination); experiment: smTIRF assay of RFC-dependent peptide and tRNA release; type: biochemical, shrimp (Artemia salina)
Description: Immobilization of ribosome Stop-POST 5 complexes. PEGylated flow chambers were incubated in 0.5 mg/ml streptavidin for 5 mins and washed with Buffer 4. Biotinylated Stop-POST5 containing FK(atto647)VRQ-tRNA^Gln (Cy3) in the P-site, was formed at room temperature by incubating Stop-POST4, eEF1A, GTP, and Gln-(Cy3)tRNA^Gln for 5 mins and then injected into the streptavidin-coated slide chamber. After a 5 min incubation, excess unbound ribosome was flowed out. Then eRF1/eRF3±TRIDs was injected dynamically at 3 sec while recording. The injection dead time was subtracted for each particle.
Single-molecule fluorescence imaging. All sm-TIRF studies were carried out at 24° C. […]
Image stacks were recorded at 100 ms frame rate on a custom-built objective-type total internal reflection fluorescence (TIRF) microscope based on a commercial inverted microscope (Eclipse Ti-E, Nikon) and capable of performing alternating-laser excitation (ALEX) between 532 nm and 640 nm laser beams using an acousto-optic tunable filter (AOTF, Chen et al., 2011). For the time-lapse experiment, timing of the movies, programmed into NIS-Elements (Nikon) microscope software, were recorded by illuminating the sample for 50-20 frames at 10 frames per s with 15 s or […] intervening dark intervals. […]

Row | SMILES | Hill n, photoincorporation into Fragments II and III (PTC) [1] | Hill n, inhibition of tRNA release ([2]; smTIRF) | Hill n, inhibition of pentapeptide release ([2]; smTIRF and fluorescence anisotropy, FIG. 9H)
1 | [N-]=[N+]=Nc1ccc(-c2nc(-c3cccc(C(=O)O)c3)no2)cc1 [AzAt] | 3.3 and ~3 | – | –
2 | O=C(O)c1cccc(-c2noc(-c3ccccc3F)n2)c1 [Ataluren] | – | 2.7±0.4 | 3.0±0.6
